Measurements reported in article PMC5645467.
No constants are given. Whether binding was seen depends on the method and setting. Binding calls can cover weak binding; strength is not graded here.

The chains behind the UniProt entries cited, without tags or fusion partners. Where a name states a change or a piece, a line headed by the entry shows the natural chain unless it says otherwise. Residues count along the entry.
UniProt Q02821: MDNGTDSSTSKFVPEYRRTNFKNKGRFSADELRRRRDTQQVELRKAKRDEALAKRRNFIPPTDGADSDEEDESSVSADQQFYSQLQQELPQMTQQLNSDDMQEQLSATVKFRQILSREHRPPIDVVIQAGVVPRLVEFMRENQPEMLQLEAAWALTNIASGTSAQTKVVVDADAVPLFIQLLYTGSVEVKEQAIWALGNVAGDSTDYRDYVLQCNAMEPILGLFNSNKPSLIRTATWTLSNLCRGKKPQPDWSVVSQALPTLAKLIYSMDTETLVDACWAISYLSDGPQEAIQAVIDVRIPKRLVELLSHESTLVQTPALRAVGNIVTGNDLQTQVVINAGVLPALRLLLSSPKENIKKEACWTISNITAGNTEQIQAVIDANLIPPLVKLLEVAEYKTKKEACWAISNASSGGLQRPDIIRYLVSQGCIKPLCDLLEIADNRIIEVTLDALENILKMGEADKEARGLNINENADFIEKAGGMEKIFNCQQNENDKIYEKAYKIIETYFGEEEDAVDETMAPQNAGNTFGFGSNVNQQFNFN
UniProt O00629: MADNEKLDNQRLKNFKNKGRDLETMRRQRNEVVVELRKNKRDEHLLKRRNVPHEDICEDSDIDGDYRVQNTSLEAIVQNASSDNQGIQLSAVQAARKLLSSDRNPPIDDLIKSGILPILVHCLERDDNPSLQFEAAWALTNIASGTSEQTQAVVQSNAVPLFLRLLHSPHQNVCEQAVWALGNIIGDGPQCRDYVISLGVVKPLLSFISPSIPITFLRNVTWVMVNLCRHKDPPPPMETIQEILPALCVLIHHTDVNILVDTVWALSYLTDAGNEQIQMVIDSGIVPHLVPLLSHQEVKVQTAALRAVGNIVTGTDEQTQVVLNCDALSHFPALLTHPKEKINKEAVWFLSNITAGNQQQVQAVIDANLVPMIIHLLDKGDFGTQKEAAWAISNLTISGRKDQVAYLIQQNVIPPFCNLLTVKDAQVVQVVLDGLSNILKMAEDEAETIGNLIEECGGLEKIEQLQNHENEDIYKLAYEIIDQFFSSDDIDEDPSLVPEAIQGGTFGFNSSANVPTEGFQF
UniProt P18754: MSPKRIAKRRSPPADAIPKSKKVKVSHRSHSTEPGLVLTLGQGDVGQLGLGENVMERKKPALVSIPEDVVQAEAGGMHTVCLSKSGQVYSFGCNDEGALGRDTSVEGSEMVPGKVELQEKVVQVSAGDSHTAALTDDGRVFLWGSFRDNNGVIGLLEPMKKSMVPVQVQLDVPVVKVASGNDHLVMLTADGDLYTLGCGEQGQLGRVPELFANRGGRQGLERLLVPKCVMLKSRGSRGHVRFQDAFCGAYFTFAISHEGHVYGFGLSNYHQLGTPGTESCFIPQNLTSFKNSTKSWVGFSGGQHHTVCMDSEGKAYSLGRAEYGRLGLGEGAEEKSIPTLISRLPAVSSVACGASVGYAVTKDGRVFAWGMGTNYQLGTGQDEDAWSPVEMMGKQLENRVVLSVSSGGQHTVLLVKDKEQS
GST-RCC1-NLS (WT): residues 1-24 of P18754
UniProt P21827: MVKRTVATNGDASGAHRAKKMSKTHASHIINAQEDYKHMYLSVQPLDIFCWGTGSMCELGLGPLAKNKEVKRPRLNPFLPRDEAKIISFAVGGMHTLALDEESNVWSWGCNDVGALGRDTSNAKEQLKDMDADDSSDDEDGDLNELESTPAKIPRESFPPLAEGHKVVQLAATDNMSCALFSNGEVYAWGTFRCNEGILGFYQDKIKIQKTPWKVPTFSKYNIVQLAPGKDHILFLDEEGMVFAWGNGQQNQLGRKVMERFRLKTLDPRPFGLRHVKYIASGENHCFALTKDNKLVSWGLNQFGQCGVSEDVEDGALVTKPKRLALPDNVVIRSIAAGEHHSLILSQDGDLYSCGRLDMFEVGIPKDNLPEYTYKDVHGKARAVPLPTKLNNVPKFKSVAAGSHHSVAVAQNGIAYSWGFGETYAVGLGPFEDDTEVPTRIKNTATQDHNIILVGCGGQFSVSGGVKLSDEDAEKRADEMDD

Assays:
[1] = target: GST-ΔIBB-Kap60 (Saccharomyces cerevisiae) (UniProt Q02821); assay: pull-down; purified GST-ΔIBB-importin α3 or GST-ΔIBB-Kap60 (1 µM) pre-incubated with RCC1/yRCC1 ([…]) ~60 min at 4 °C, then bound to glutathione beads, washed three times, eluted with 25 mM reduced glutathione; SDS-PAGE, Coomassie, quantified in triplicate, WT = 100%; both purified
[2] = target: untagged ΔIBB-importin α3 (co-expressed with GST-RCC1) (human) (UniProt O00629); assay: crystal structure; co-expressed, purified complexes crystallised at 20 mg ml^-1; molecular replacement; both purified
[3] = target: ΔIBB-Kap60 (co-expressed with yeast GST-RCC1) (Saccharomyces cerevisiae) (UniProt Q02821); assay: as above
[4] = target: GST-RCC1 (full-length human RCC1, wild type) (human) (UniProt P18754); assay: pull-down; GST-RCC1 constructs (~[…]) pre-incubated with His-tagged ΔIBB-importin α1 or α3 (~1 µM), glutathione beads, eluted with reduced glutathione; SDS-PAGE, quantified, ΔIBB-importin α3 pulled down by GST-RCC1 = 100%; both purified
[5] = target: GST-RCC1-NLS (WT) (human) (UniProt P18754); assay: as above

Row | Substance | binding [1] | other results
1 | Δ23-yRCC1 (from UniProt P21827 24-482) (domain or fragment) | no binding (tested: 1 μM ΔIBB-Kap60 and 0.75 μM yRCC1) | 
2 | RCC1 (human, cleaved from GST, in the purified importin α3:RCC1 complex) (from UniProt P18754 1-421) |  | binding [2]: binds
3 | yRCC1 R4A/K20A (from UniProt P21827 1-482) | no binding (tested: 1 μM ΔIBB-Kap60 and 0.75 μM yRCC1) | 
4 | Δ10-yRCC1 (from UniProt P21827 11-482) (domain or fragment) | no binding (tested: 1 μM ΔIBB-Kap60 and 0.75 μM yRCC1) | 
5 | yRCC1 K20A (from UniProt P21827 1-482) | no binding (tested: 1 μM ΔIBB-Kap60 and 0.75 μM yRCC1) | 
6 | yRCC1 (yeast RCC1, wild type, free protein) (from UniProt P21827 1-482) | binds | 
7 | yRCC1 R4A (from UniProt P21827 1-482) | no binding (tested: 1 μM ΔIBB-Kap60 and 0.75 μM yRCC1) | 
8 | yRCC1 (yeast RCC1, cleaved from GST, in the purified Kap60:yRCC1 complex) (from UniProt P21827 1-482) |  | binding [3]: binds
9 | yRCC1 E34A/D35A (from UniProt P21827 1-482) | binds | 
10 | His-tagged ΔIBB-importin α3 (from UniProt O00629) (domain or fragment) |  | binding [4]: binds; binding [5]: binds
